Data reported in PMC4157330, “Molecular assembly of the period-cryptochrome circadian transcriptional repressor complex” (eLife, 2014).
Where a chain is given by its changes, count along the chain named. Results are given in words; binding and its absence hold for the method and conditions named. Binding seen in cells or lysates may run through a third protein. Some binding calls cover weakened binding; strength is not graded here.

By UniProt entry, the sequences of proteins in these tests, tags left out.
UniProt O35973: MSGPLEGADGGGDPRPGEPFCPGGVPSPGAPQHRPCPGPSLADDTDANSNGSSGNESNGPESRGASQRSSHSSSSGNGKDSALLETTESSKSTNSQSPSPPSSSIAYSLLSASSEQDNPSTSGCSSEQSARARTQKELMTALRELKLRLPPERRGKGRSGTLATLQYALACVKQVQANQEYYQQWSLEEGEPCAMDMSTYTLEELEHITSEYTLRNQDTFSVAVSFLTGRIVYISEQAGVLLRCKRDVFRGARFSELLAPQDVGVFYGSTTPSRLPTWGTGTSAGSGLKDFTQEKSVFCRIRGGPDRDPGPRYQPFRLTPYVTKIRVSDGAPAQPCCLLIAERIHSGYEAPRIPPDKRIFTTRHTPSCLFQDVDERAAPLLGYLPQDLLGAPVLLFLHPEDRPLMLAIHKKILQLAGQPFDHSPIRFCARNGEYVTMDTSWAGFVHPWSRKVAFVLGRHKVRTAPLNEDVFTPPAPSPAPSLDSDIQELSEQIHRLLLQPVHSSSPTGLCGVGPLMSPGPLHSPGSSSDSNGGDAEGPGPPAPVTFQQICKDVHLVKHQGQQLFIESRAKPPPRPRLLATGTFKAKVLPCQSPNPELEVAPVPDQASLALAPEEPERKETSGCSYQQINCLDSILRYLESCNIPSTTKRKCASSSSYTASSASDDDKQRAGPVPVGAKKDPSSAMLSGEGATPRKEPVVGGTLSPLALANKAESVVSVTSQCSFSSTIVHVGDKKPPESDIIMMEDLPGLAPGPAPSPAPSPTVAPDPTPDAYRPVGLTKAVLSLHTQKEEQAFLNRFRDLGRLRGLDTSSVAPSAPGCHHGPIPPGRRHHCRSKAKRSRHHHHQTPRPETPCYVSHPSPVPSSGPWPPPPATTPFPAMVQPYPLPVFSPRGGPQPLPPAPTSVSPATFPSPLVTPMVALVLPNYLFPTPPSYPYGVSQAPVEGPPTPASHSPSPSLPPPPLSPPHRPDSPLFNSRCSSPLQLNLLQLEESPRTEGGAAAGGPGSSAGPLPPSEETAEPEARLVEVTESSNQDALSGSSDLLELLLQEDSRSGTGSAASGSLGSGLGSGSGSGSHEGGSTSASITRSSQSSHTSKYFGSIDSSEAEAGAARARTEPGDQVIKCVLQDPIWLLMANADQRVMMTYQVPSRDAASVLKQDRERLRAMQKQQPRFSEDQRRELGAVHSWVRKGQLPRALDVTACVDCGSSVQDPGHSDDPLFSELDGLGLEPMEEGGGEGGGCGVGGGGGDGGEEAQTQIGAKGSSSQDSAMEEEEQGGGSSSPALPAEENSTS

What was measured:
[1] = target: T1, CRY1 (wild type, co-IP of Figure 4D–F) (mouse) (UniProt P97784); assay: co-IP; CRY1 wild type or R109Q with CLOCK-BMAL1, PER1 or PER2 (Figure 4D–F); cells, tags and bait not told
T1 sequence: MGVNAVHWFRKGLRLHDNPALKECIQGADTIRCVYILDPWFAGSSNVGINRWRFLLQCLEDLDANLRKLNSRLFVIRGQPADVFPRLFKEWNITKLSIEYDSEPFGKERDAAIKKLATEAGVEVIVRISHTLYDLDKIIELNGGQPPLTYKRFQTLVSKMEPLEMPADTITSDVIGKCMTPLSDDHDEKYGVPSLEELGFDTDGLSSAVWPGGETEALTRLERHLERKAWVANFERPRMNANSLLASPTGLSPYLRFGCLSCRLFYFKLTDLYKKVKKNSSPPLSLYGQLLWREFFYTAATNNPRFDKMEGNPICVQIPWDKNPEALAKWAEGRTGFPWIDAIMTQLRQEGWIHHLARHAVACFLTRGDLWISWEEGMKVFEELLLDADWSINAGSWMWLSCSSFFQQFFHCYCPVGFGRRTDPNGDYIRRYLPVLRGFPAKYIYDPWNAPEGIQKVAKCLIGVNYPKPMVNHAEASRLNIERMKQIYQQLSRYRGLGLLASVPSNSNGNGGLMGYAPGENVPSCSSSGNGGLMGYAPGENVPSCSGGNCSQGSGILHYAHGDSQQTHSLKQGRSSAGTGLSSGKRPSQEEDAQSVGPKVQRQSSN

[2] = target: T2, CRY1 R109Q (mouse) (UniProt P97784); assay: as above
T2 sequence: T1 sequence with R109Q

- binding [1]: binds
- binding [2]: binds
Substance: PER1 (from UniProt O35973 1-1291)
